{
  "source": "PubChem BioAssay AID540276",
  "about": "(National Center for Advancing Translational Sciences (NCATS), 2011)",
  "note": "Values joined by “and” are separate entries in the source; they are usually repeats but may differ in a detail not shown here. Identical values can stand only once. Among all 300,000 compounds or so, about 5,400 (1.8%) were called active. Inconclusive results, whose numbers are uncertain, are shown with a selection of clear calls. Calls follow the shape of the full dose curve; tested in HEK293 cells. Where the call is inconclusive, the potency comes from a doubtful curve fit. Some structures have more than one record in an assay (separate samples or runs), and their calls can disagree. % is scaled to controls: 0 for no effect and ±100 for the full control effect; potency is read from the fitted curve at half-maximal effect.",
  "data": [
    {"experiment": "qHTS for inhibitors of binding or entry into cells for Marburg Virus", "details": "Marburg virus pseudotyped entry inhibition, cell reporter; activity change, negative = inhibition: at 37.8 µM (top of the series) unless noted", "values": [
      {"smiles": "Cc1c(C(=O)OCC(=O)N2CC(=O)Nc3ccccc32)oc2ccccc12", "Potency": "inconclusive: 0.0291 µM [inhibitor, full curve, poor fit]"},
      {"smiles": "CN(c1ccccc1)S(=O)(=O)c1cccc(NC(=O)C2CCCO2)c1", "note": "(configuration not stated)", "Potency": "inconclusive: 3.55 µM [inhibitor, full curve, poor fit]"},
      {"smiles": "COc1ccc(CNC(=O)C/C(C)=N/NC(=O)c2ccc([N+](=O)[O-])cc2Cl)cc1", "activity change, negative = inhibition": "inactive: 14.7% [at 46.1 µM]"},
      {"smiles": "Cc1ccc(C)c(N2CCN(S(=O)(=O)c3c(C)[nH]c(C)c3C(=O)N3CCCCC3)CC2)c1", "Potency": "inconclusive: 28.2 µM [inhibitor, single point]"},
      {"smiles": "CC1=CC(=O)C=C(C)C1=NOc1ccccc1[N+](=O)[O-]", "Potency": "inconclusive: 1.84 µM [inhibitor, full curve, poor fit]"},
      {"smiles": "C=CCNC(=O)c1ccccc1NC(=O)c1ccc(Cl)c(S(=O)(=O)Nc2cccc(C)c2C)c1", "Potency": "inconclusive: 13 µM [inhibitor, partial curve]"},
      {"smiles": "CC(=O)c1ccc(NCCC(=O)c2ccccc2)cc1", "Potency": "inconclusive: 3.98 µM [activator, full curve]"},
      {"smiles": "Cc1ccc(N(Cc2ccco2)C(=O)c2cccc(S(=O)(=O)N(C)C)c2)cc1", "activity change, negative = inhibition": "inactive: -20.2%"},
      {"smiles": "Cc1cnc(C(=O)Nc2ccc3c(c2)CCC3)cn1", "Potency": "inconclusive: 3.55 µM [inhibitor, full curve, poor fit]"},
      {"smiles": "CCOC(=O)c1c(NC(=O)CSc2nnc(CNc3ccc(F)cc3)o2)sc(C)c1C", "Potency": "inconclusive: 32.6 µM [inhibitor, single point]"},
      {"smiles": "CCN1CCN(c2cc(N3CCCC3)c(F)cc2[N+](=O)[O-])CC1", "Potency": "active: 20.6 µM"},
      {"smiles": "Cc1ccc2c(c1)c1c(n2CC(O)Cn2nc(C)c(Br)c2C)C(=O)CCC1", "note": "(configuration not stated)", "Potency": "inconclusive: 0.282 µM [inhibitor, full curve, poor fit]"},
      {"smiles": "N#Cc1c(F)cccc1N1CCN(Cc2ccc3c(c2)OCO3)CC1", "Potency": "inconclusive: 11.2 µM [inhibitor, partial curve, poor fit]"},
      {"smiles": "Cc1ccc(C(=O)N(CC(=O)NC2CCCC2)Cc2cccs2)s1", "activity change, negative = inhibition": "inactive: 11.3%"},
      {"smiles": "Cc1ccc(C(=O)Nc2ccccc2)cc1S(=O)(=O)Nc1ccccc1", "Potency": "inconclusive: 6.31 µM [inhibitor, single point]"},
      {"smiles": "Cc1ccc(NC(=O)C(=O)NCc2ccc(/C=C(/C#N)C(=O)NCc3cccnc3)o2)cc1C", "activity change, negative = inhibition": "inactive: 27.7%"},
      {"smiles": "CCCCc1nc2c(c3c1C[C@H](C)OC3)CN(S(=O)(=O)c1ccc(C)cc1)CC2", "Potency": "inactive"},
      {"smiles": "COC(=O)c1c(C)oc2ccc(N(C(=O)c3ccncc3)S(=O)(=O)c3cc(C)ccc3C)cc12", "activity change, negative = inhibition": "inactive: -28.9% [at 46.1 µM]"},
      {"smiles": "COc1ccc(NC(=O)COC(=O)c2c3c(nc4ccccc24)CCCC3)cc1", "Potency": "inconclusive: 5.01 µM [inhibitor, full curve, poor fit]"},
      {"smiles": "COc1ccccc1CN(C)C(=O)c1cccc(S(=O)(=O)N2CCc3ccccc3C2)c1", "Potency": "inconclusive: 12.6 µM [inhibitor, single point]"},
      {"smiles": "Cc1nc2cccc(C(=O)Oc3ccc([N+](=O)[O-])cc3)c2o1", "activity change, negative = inhibition": "inactive: -9.66% [at 46.1 µM]"},
      {"smiles": "O=C(Nc1ccc(Nc2ccccc2)cc1)C(Cl)Cl", "Potency": "inconclusive: 15.8 µM [inhibitor, single point]"},
      {"smiles": "CC(=O)/C=C/c1ccc2ccccc2n1", "Potency": "inconclusive: 35.5 µM [inhibitor, single point]"},
      {"smiles": "COc1ccc(CCNC(=O)CCCn2nc(C)c3sc4ccccc4c3c2=O)c(OC)c1", "activity change, negative = inhibition": "inactive: 6.51% [at 46.1 µM]"},
      {"smiles": "COc1ccc2c(c1)c(/C=N/Nc1nc3ccccc3[nH]1)c(C)n2C", "Potency": "inconclusive: 1.12 µM [inhibitor, full curve, poor fit]"},
      {"smiles": "Cc1ccc(NC(=O)Cn2cc(C(=O)C3CCCCC3)c3ccccc32)cc1", "activity change, negative = inhibition": "inactive: -18.2% [at 46.1 µM]"},
      {"smiles": "CCOc1ccc(-c2cc(CCCC(=O)NCCc3cc(OC)c(OC)c(OC)c3)no2)cc1", "Potency": "inconclusive: 11.2 µM [inhibitor, partial curve, poor fit]"},
      {"smiles": "Cc1ccc(C)c(CN2C(=O)CSc3ccc(C(=O)N4CCCC4)cc32)c1", "Potency": "inconclusive: 35.5 µM [inhibitor, single point]"},
      {"smiles": "O=C(COC(=O)C1=COCCO1)Nc1cccc(Oc2ccccc2)c1", "activity change, negative = inhibition": "inactive: -3.59%"},
      {"smiles": "O=S1(=O)CCC(NC(=S)Nc2ccc(Cl)cc2)C1", "note": "(configuration not stated)", "Potency": "inconclusive: 7.08 µM [activator, full curve, poor fit]"},
      {"smiles": "O=C(CCNS(=O)(=O)c1ccc2[nH]c(=O)oc2c1)Nc1ccccc1", "Potency": "inconclusive: 3.55 µM [activator, single point]"},
      {"smiles": "COc1ccc(C(=O)Oc2c(Sc3ccc(C)cc3)c(C)nn2C(C)(C)C)cc1OC", "Potency": "inconclusive: 35.5 µM [inhibitor, single point]"},
      {"smiles": "Cc1ccccc1Nc1oc(-c2ccccc2)nc1-c1ccc(C(F)(F)F)cc1", "activity change, negative = inhibition": "inactive: 16.6% [at 14.2 µM]"},
      {"smiles": "CCc1ccc(NC(=S)N(CCCN2CCN(C)CC2)Cc2cccs2)cc1", "Potency": "inconclusive: 20 µM [inhibitor, single point]"},
      {"smiles": "COc1ccccc1NC(=O)Cn1c(=O)n(CC(=O)NCc2ccccc2Cl)c(=O)c2sccc21", "activity change, negative = inhibition": "inconclusive: 9.52% [activator] [at 46.1 µM]"},
      {"smiles": "COc1ccc2c(c1)CC/C2=N\\NC(=O)c1ccccc1", "Potency": "inconclusive: 3.98 µM [activator, partial curve, poor fit]"},
      {"smiles": "CCCc1nc2ccccc2c(C(=O)OC(C)C(=O)NCc2ccc3c(c2)OCO3)c1CC", "note": "(configuration not stated)", "Potency": "inconclusive: 8.91 µM [inhibitor, partial curve, poor fit]"},
      {"smiles": "CCn1c([N+](=O)[O-])nc2c1c(=O)[nH]c(=O)n2C", "Potency": "inconclusive: 18.3 µM [inhibitor, single point]"},
      {"smiles": "COc1ccc(CCNc2ncnc3c2[nH]c2cc(OC)c(OC)cc23)cc1OC", "Potency": "inconclusive: 28.2 µM [inhibitor, partial curve, poor fit]"},
      {"smiles": "CC1(C(=O)Nc2nnc(C(C)(C)C)s2)Cc2ccccc2C(=O)O1", "note": "(configuration not stated)", "activity change, negative = inhibition": "inactive: 8.21%"},
      {"smiles": "Cc1ccc(S(=O)(=O)Nc2cc(C(=O)NCCN(C)C)ccc2N2CCCCC2)cc1", "Potency": "inconclusive: 8.91 µM [inhibitor, partial curve, poor fit]"},
      {"smiles": "N#CC1=C(N)NC(SCc2ccccc2)=C(C#N)C12CCCC2", "Potency": "inconclusive: 18.4 µM [inhibitor, single point]"},
      {"smiles": "CCc1c(C)[nH]c2c1C(=O)C(CN1CCOCC1)CC2", "note": "(configuration not stated)", "Potency": "inconclusive: 0.178 µM [inhibitor, full curve, poor fit]"},
      {"smiles": "CCOC(=O)C1(CCOc2ccccc2)CCN(Cc2ccccc2O)CC1", "Potency": "inconclusive: 10 µM [inhibitor, partial curve, poor fit]"},
      {"smiles": "CC1CC1C(=O)Nc1nc2ccc(Cl)cc2s1", "note": "(configuration not stated)", "Potency": "inconclusive: 7.08 µM [inhibitor, partial curve]"},
      {"smiles": "COC(=O)C1=CN(CC2CCCO2)C=C(C(=O)OC)C1c1ccsc1", "note": "(configuration not stated)", "activity change, negative = inhibition": "inactive: 11.3%"},
      {"smiles": "Cc1ccc(C(=O)Oc2cc(-c3ccc4c(c3)OCO4)cc(=O)c3c(C)oc(C)c23)cc1", "Potency": "inconclusive: 2.82 µM [activator, single point]"},
      {"smiles": "CN(/N=C/c1ccc(Cl)cc1)c1ncc(Cl)cc1C(F)(F)F", "activity change, negative = inhibition": "inactive: -24.2% [at 46.1 µM]"},
      {"smiles": "CC(Sc1n[nH]c(-c2cccs2)n1)C(=O)N1CCCC1", "note": "(configuration not stated)", "activity change, negative = inhibition": "inactive: 16.7% [at 46.1 µM]"},
      {"smiles": "Nc1nnnn1/N=C/C(Br)=C/c1ccccc1", "Potency": "active: 5.01 µM"},
      {"smiles": "C=C(C)Cn1c(-c2ccc(OC)cc2)nc2ccccc21", "Potency": "inconclusive: 7.08 µM [inhibitor, single point]"},
      {"smiles": "O=C(c1ccc(Cl)cc1)N1CCCCC(Sc2nnc(-c3ccc4c(c3)OCO4)o2)C1=O", "note": "(configuration not stated)", "Potency": "inconclusive: 0.082 µM [activator, partial curve, poor fit]"},
      {"smiles": "O=C(CN(C(=O)CCC(=O)Nc1nccs1)c1ccc2c(c1)OCO2)NCc1ccc(F)cc1", "Potency": "inconclusive: 7.08 µM [inhibitor, partial curve, poor fit]"},
      {"smiles": "CCN(CC)S(=O)(=O)c1ccc(Oc2ccc(S(=O)(=O)N(CC)CC)cc2)cc1", "Potency": "inconclusive: 7.3 µM [inhibitor, partial curve]"},
      {"smiles": "Cc1ccc(C=NNc2nc3c([nH]2)c(=O)n(C)c(=O)n3C)cc1", "Potency": "inconclusive: 10 µM [inhibitor, partial curve, poor fit]"},
      {"smiles": "Cc1c(C=O)c2ccccn2c1C(=O)c1cccc([N+](=O)[O-])c1", "activity change, negative = inhibition": "inactive: -3.16%"},
      {"smiles": "O=C(/C=C/c1ccccc1)NC(NC(=S)Nc1cccc(Cl)c1)C(Cl)(Cl)Cl", "note": "(configuration not stated)", "Potency": "inconclusive: 5.17 µM [inhibitor, full curve, poor fit]"},
      {"smiles": "COc1ccccc1NC(=O)c1ccc(NC(=O)CN2C(=O)CN(C)C2=O)cc1", "Potency": "inconclusive: 3.55 µM [inhibitor, single point]"},
      {"smiles": "COc1cccc(CCNS(=O)(=O)CCNC(=O)c2cccc(OC)c2)c1", "activity change, negative = inhibition": "inactive: -3.16%"},
      {"smiles": "CCNC(=O)c1cc2c(=O)n3cccc(C)c3nc2n(Cc2ccc(C)cc2)c1=N", "Potency": "inconclusive: 0.316 µM [inhibitor, full curve, poor fit]"},
      {"smiles": "O=C(NCCN1CCCCC1)c1ccc(Cn2c(SCc3ccccc3)nc3cccnc32)cc1", "Potency": "inconclusive: 10 µM [inhibitor, partial curve, poor fit]"},
      {"smiles": "CC1CC1C(=O)Nc1ccc(-c2ccccc2)cc1", "note": "(configuration not stated)", "activity change, negative = inhibition": "inactive: -2.06%"},
      {"smiles": "NC(=O)CNCCC(c1ccccc1)c1ccccc1", "Potency": "inactive and active: 11.2 µM"},
      {"smiles": "CCn1c(SCC(=O)NCc2ccco2)nnc1-c1cccs1", "activity change, negative = inhibition": "inactive: 7.23%"},
      {"smiles": "CCN(C(=O)CSc1nnc(-c2ccc(C)cc2)n1N)c1c(N)n(Cc2ccccc2)c(=O)[nH]c1=O", "activity change, negative = inhibition": "inactive: 1.8%"},
      {"smiles": "CC1(C)CC(=O)C(Sc2ccccc2)=C(O)C1", "Potency": "inconclusive: 3.16 µM [activator, single point]"},
      {"smiles": "COc1ccc(C(CCNCc2ccc(OC(C)C)cc2)C(C)C)cc1", "note": "(configuration not stated)", "Potency": "inconclusive: 25.1 µM [inhibitor, single point]"}
    ]}
  ]
}
